Laboratory results: PubChem BioAssay AID652259 (Drosophila RNAi Screening Center, 2013)
Aim: 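Knock-downs that push a Wingless-driven reporter up or down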 (primary screen). Cells: Drosophila clone 8 imaginal disc epithelial cells. Reagents: long dsRNA against Drosophila genes. Conditions: pathway stimulated by co-transfected Wingless expression plasmid. Detection: 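Dual luciferase reads per well after Wingless plasmid stimulation: reporter firefly light and Renilla control light; activity is firefly divided by Renilla, a ratio not deposited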. Reading the numbers: firefly reporter light: higher = more Wg reporter light, before normalisation; Renilla control light: higher = more transfected or surviving cells. Call rule: 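Strong candidates differ from their plate mean by at least two out of four per-plate statistical tests; weak candidates meet just one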. Calls: active = candidate regulator (raises or lowers reporter); inactive = not a candidate.
In all, the deposit lists about 22,000 reagents; below is an unselected part of those that have a named target and a result. In the full data, 233 (1.1%) were called active. 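Light values are raw, unnormalised plate reads; the ratio scores behind the reporter calls were not deposited.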 Reagents against one gene are numbered here. Names joined by + are all predicted targets of the reagent. The record does not give: the amount of reagent, the time to read-out, the dose of the treatment.

| target | dsRNA no. | reporter change call, replicate 1 | firefly reporter light, replicate 1 | firefly reporter light, replicate 2 | Renilla control light, replicate 1 | Renilla control light, replicate 2 | Outcome |
| --- | --- | --- | --- | --- | --- | --- | --- |
| Gem4b + Gem4c + Glos | 1 | – | 17057 | – | 7216 | – | inactive |
| Gld | 1 | – | 10224 | – | 3924 | – | inactive |
| l(2)k05819 | 1 | – | 13749 | – | 4732 | – | inactive |
| S-Lap3 | 1 | – | 1971 | – | 1059 | – | inactive |
| Adgf-B | 1 | – | 7816 | – | 3105 | – | inactive |
| Karl | 1 | – | 2395 | 6619 | 946 | 2280 | inactive |
| dpr19 | 1 | – | 1923 | 9546 | 784 | 4301 | inactive |
| CG31886 | 1 | – | 10871 | – | 3484 | – | inactive |
| CG3448 | 1 | – | 5831 | – | 2309 | – | inactive |
| Roc1b + Cdc5 | 1 | – | 5240 | – | 3893 | – | inactive |
| nAChRalpha1 | 1 | – | 3111 | – | 545 | – | inactive |
| nAChRalpha1 | 2 | – | 3685 | – | 371 | – | inactive |
| nAChRalpha1 | 3 | – | 3578 | – | 1883 | – | inactive |
| nAChRalpha1 | 4 | – | 24596 | – | 16192 | – | inactive |
| CG31495 | 1 | – | 16096 | – | 3718 | – | inactive |
| Alp11 | 1 | – | 14138 | – | 6896 | – | inactive |
| CG42521 | 1 | – | 10627 | – | 4566 | – | inactive |
| Ubc10 | 1 | – | 9284 | – | 1912 | – | inactive |
| CG4653 | 1 | – | 3739 | 9152 | 1258 | 2832 | inactive |
| CG4653 | 2 | – | 7.32e5 | 8.33e5 | 3.40e5 | 4.59e5 | inactive |
| Prosalpha2 | 1 | – | 11399 | – | 3504 | – | inactive |
| Tango8 | 1 | Wg reporter activity raised | 6293 | 1.06e6 | 1130 | 3.17e5 | inactive |
| Su(dx) | 1 | – | 14281 | – | 4339 | – | inactive |
| bnk | 1 | – | 7744 | – | 2705 | – | inactive |
| PIP82 | 1 | – | 14650 | – | 10586 | – | inactive |
| Hrs | 1 | – | 17723 | – | 5600 | – | inactive |
| CG13000 | 1 | – | 23229 | – | 9853 | – | inactive |
| cyst | 1 | – | 8181 | – | 3165 | – | inactive |
| stmA | 1 | – | 26963 | – | 13160 | – | inactive |
| stmA | 2 | – | 12816 | – | 3289 | – | inactive |
| stmA | 3 | – | 4.94e5 | 5.30e5 | 2.02e5 | 1.85e5 | inactive |
| CG13558 | 1 | – | 2006 | 6650 | 624 | 2292 | inactive |
| CG13154 | 1 | – | 6213 | – | 1780 | – | inactive |
| fzr | 1 | – | 19683 | – | 7410 | – | inactive |
| bdg | 1 | – | 11024 | – | 3421 | – | inactive |
| CG18666 | 1 | – | 3229 | 6487 | 977 | 3275 | inactive |
| Inos | 1 | – | 2224 | 7606 | 466 | 2077 | inactive |
| Gk2 | 1 | – | 14524 | – | 3436 | – | inactive |
| Peritrophin-15a | 1 | – | 2220 | 8297 | 1113 | 4593 | inactive |
| CG14086 | 1 | – | 17792 | – | 6912 | – | inactive |
| moon | 1 | – | 17723 | – | 9009 | – | inactive |
| mRpS30 | 1 | – | 2112 | 6121 | 816 | 2040 | inactive |
| CG11970 | 1 | – | 5745 | – | 1488 | – | inactive |
| Cep290 | 1 | – | 6764 | – | 2981 | – | inactive |
| Epp | 1 | – | 3376 | 9014 | 1056 | 3088 | inactive |

A run of entries from the list above:
| target | dsRNA no. | reporter change call, replicate 1 | firefly reporter light, replicate 1 | firefly reporter light, replicate 2 | Renilla control light, replicate 1 | Renilla control light, replicate 2 | Outcome |
| --- | --- | --- | --- | --- | --- | --- | --- |
| nAChRalpha1 | 2 | – | 3685 | – | 371 | – | inactive |
| nAChRalpha1 | 3 | – | 3578 | – | 1883 | – | inactive |
| nAChRalpha1 | 4 | – | 24596 | – | 16192 | – | inactive |
| CG31495 | 1 | – | 16096 | – | 3718 | – | inactive |
| Alp11 | 1 | – | 14138 | – | 6896 | – | inactive |
| CG42521 | 1 | – | 10627 | – | 4566 | – | inactive |
| Ubc10 | 1 | – | 9284 | – | 1912 | – | inactive |
| CG4653 | 1 | – | 3739 | 9152 | 1258 | 2832 | inactive |
| CG4653 | 2 | – | 7.32e5 | 8.33e5 | 3.40e5 | 4.59e5 | inactive |
| Prosalpha2 | 1 | – | 11399 | – | 3504 | – | inactive |
| Tango8 | 1 | Wg reporter activity raised | 6293 | 1.06e6 | 1130 | 3.17e5 | inactive |
| Su(dx) | 1 | – | 14281 | – | 4339 | – | inactive |

Continued.
| target | dsRNA no. | reporter change call, replicate 1 | firefly reporter light, replicate 1 | firefly reporter light, replicate 2 | Renilla control light, replicate 1 | Renilla control light, replicate 2 | Outcome |
| --- | --- | --- | --- | --- | --- | --- | --- |
| CG14230 | 1 | – | 3105 | 7730 | 1089 | 2404 | inactive |
| CG13623 | 1 | – | 15005 | – | 11420 | – | inactive |
| CG13561 | 1 | – | 4291 | 10154 | 1017 | 3476 | inactive |
| disco-r | 1 | – | 27074 | – | 10883 | – | inactive |
| disco-r | 2 | – | 25501 | – | 11553 | – | inactive |
| CG11601 | 1 | – | 2673 | 7460 | 736 | 2707 | inactive |
| CG4766 | 1 | – | 28680 | – | 13048 | – | inactive |
| Dll | 1 | – | 2201 | 6180 | 541 | 2272 | inactive |
| CG15353 | 1 | – | 4813 | 6325 | 1500 | 2729 | inactive |
| atos | 1 | – | 6085 | – | 2218 | – | inactive |
| CG31199 | 1 | – | 2330 | 6498 | 1224 | 1661 | inactive |
| CG34033 | 1 | – | 20433 | – | 9847 | – | inactive |
| Slmap | 1 | – | 3316 | 6602 | 613 | 2042 | inactive |
| CG34447 | 1 | – | 2647 | 5905 | 1440 | 2896 | inactive |
| Cyp12d1-d + Cyp12d1-p | 1 | – | 4.50e5 | 4.58e5 | 2.78e5 | 1.93e5 | inactive |
| zfh2 | 1 | – | 1417 | 5840 | 938 | 1501 | inactive |
| PGRP-LD + Pmi | 1 | – | 4352 | – | 1856 | – | inactive |
| PGRP-LD + Pmi | 2 | – | 2642 | 9655 | 2551 | 4744 | inactive |
| Ak1 | 1 | – | 7680 | – | 2272 | – | inactive |
| pncr004:X (retired record) | 1 | – | 4167 | – | 1777 | – | inactive |
| Ing5 | 1 | – | 16468 | – | 3984 | – | inactive |
| Hers + amn | 1 | – | 18898 | – | 12128 | – | inactive |
| mRpL24 | 1 | – | 11728 | – | 4806 | – | inactive |
| Teh4 | 1 | – | 4141 | – | 2400 | – | inactive |
| CG2767 | 1 | – | 5595 | – | 2332 | – | inactive |
| RpL14 | 1 | – | 2397 | 6656 | 912 | 1817 | inactive |
| ninaA | 1 | – | 12757 | – | 4512 | – | inactive |
| Acsf2 | 1 | – | 2625 | 10648 | 1130 | 2903 | inactive |
